PubChem BioAssay AID1224830 | NIAID, 2016

- Screen: 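Host factors that control LPS-induced TNF expression in human macrophages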 (primary screen)
- Cell system: human THP-1 monocytic leukaemia cells, TNF dual-luciferase reporter clone, PMA-differentiated to macrophage-like cells
- Reagent: siRNA pool against human genes, 50 nM
- Timing: LPS for 4 h, given about 3 days after siRNA transfection
- Conditions: bacterial LPS (TLR4 ligand), 10 ng/ml
- Measured: 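TNF firefly reporter luminescence divided by renilla, normalised to the plate median, then turned into a robust z-score for each replicate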
- Reading the numbers: TNF reporter robust z-score: higher = stronger TNF reporter response to LPS
- Hit rule: 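a well is active when its z-score exceeds 2.8 or falls below -1.5; control wells carry no call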
The whole screen tested about 18,000 reagents; this is an unselected part. About 2,900 of them (16%) count as active. 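Calls are made per well; low scores hint the gene aids the LPS response, high scores that it dampens it.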 Repeated entries: four replicate wells of each siRNA pool.

TNF reporter robust z-score | activity call | target
0.67 | inactive | ZBTB37
0.85 | inactive | ZBTB37
0.72 | inactive | ZBTB37
0.82 | inactive | ZBTB37
0.36 | inactive | ABCB8
0.68 | inactive | ABCB8
-0.17 | inactive | ABCB8
-0.2 | inactive | ABCB8
-0.54 | inactive | SLC9C1
-1.21 | inactive | SLC9C1
-0.29 | inactive | SLC9C1
-0.04 | inactive | SLC9C1
-0.01 | inactive | CHTF8
0.36 | inactive | CHTF8
0.82 | inactive | CHTF8
1.55 | inactive | CHTF8
-1.07 | inactive | GUCA1B
0.4 | inactive | GUCA1B
0.32 | inactive | GUCA1B
3.13 | active | GUCA1B
0.07 | inactive | BTBD9
-0.6 | inactive | BTBD9
0.6 | inactive | BTBD9
0.72 | inactive | BTBD9
-1.12 | inactive | DTNA
-1.09 | inactive | DTNA
-1.34 | inactive | DTNA
-0.94 | inactive | DTNA
-0.58 | inactive | LYN
-0.42 | inactive | LYN
0.68 | inactive | LYN
0.96 | inactive | LYN
-0.84 | inactive | OPA3
-0.2 | inactive | OPA3
-0.66 | inactive | OPA3
-0.01 | inactive | OPA3
-1.77 | active | H1-8
-1.53 | active | H1-8
-1.54 | active | H1-8
-1.63 | active | H1-8
1.16 | inactive | SAP130
-0.17 | inactive | SAP130
-0.24 | inactive | SAP130
-0.7 | inactive | SAP130
1.14 | inactive | TADA3
1.15 | inactive | TADA3
-0.31 | inactive | TADA3
0.12 | inactive | TADA3
0.71 | inactive | KIF5C
-0.56 | inactive | KIF5C
-0.85 | inactive | KIF5C
-0.18 | inactive | KIF5C
-0.99 | inactive | FANCA
-0.34 | inactive | FANCA
-0.29 | inactive | FANCA
0.12 | inactive | FANCA
-0.72 | inactive | ATOH1
-0.47 | inactive | ATOH1
-0.08 | inactive | ATOH1
0.33 | inactive | ATOH1
-0.71 | inactive | CKM
2.28 | inactive | CKM
-1.1 | inactive | CKM
-1.22 | inactive | CKM
0.12 | inactive | CSK
0.29 | inactive | CSK
1.49 | inactive | CSK
0.16 | inactive | CSK
0.4 | inactive | SIK3
0.14 | inactive | SIK3
-0.41 | inactive | SIK3
0.96 | inactive | SIK3
0.33 | inactive | GAD1
1.36 | inactive | GAD1
0.3 | inactive | GAD1
1.35 | inactive | GAD1
0.08 | inactive | PSKH1
0.05 | inactive | PSKH1
0.95 | inactive | PSKH1
0.9 | inactive | PSKH1
0.18 | inactive | RPRM
1.1 | inactive | RPRM
0.14 | inactive | RPRM
1.08 | inactive | RPRM
0.78 | inactive | SBSPON
1.81 | inactive | SBSPON
0.86 | inactive | SBSPON
1.06 | inactive | SBSPON
-0.62 | inactive | PGPEP1
0.08 | inactive | PGPEP1
-0.99 | inactive | PGPEP1
1.43 | inactive | PGPEP1
-0.77 | inactive | PON3
1.13 | inactive | PON3
1.81 | inactive | PON3
0.05 | inactive | PON3
-0.52 | inactive | PAX2
0.86 | inactive | PAX2
-0.25 | inactive | PAX2
1.89 | inactive | PAX2
-0.94 | inactive | TTC1
-1.08 | inactive | TTC1
-1.13 | inactive | TTC1
-0.31 | inactive | TTC1
-0.3 | inactive | CARD8
0.36 | inactive | CARD8
-0.73 | inactive | CARD8
0.06 | inactive | CARD8
-1.07 | inactive | GAL3ST1
-0.27 | inactive | GAL3ST1
-0.1 | inactive | GAL3ST1
-1.32 | inactive | GAL3ST1
